Source: the supplement of paper PMC12823440, “Inhibitors supercharge kinase turnover through native proteolytic circuits” (Nature, 2025)
Structures can show the parent of a compound that is named as a salt. Some of the results follow. The calls rarely recur for the same compound in another form.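 In K562 cells expressing nanoluciferase-fused kinases, luminescence was recorded at 4 h intervals between 2 and 18 h, normalized as percent of control with DMSO at 100% and a positive control at 0%. A significant (2 sigma) signal drop marks a time point as decreased. The authors' rule for a hit is not shown and takes in more than the number of time points.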

By UniProt entry, the sequences of proteins in these tests, tags left out. Where a name states a change or a piece, a line headed by the entry shows the natural chain unless it says otherwise.
UniProt P21860, whole entry: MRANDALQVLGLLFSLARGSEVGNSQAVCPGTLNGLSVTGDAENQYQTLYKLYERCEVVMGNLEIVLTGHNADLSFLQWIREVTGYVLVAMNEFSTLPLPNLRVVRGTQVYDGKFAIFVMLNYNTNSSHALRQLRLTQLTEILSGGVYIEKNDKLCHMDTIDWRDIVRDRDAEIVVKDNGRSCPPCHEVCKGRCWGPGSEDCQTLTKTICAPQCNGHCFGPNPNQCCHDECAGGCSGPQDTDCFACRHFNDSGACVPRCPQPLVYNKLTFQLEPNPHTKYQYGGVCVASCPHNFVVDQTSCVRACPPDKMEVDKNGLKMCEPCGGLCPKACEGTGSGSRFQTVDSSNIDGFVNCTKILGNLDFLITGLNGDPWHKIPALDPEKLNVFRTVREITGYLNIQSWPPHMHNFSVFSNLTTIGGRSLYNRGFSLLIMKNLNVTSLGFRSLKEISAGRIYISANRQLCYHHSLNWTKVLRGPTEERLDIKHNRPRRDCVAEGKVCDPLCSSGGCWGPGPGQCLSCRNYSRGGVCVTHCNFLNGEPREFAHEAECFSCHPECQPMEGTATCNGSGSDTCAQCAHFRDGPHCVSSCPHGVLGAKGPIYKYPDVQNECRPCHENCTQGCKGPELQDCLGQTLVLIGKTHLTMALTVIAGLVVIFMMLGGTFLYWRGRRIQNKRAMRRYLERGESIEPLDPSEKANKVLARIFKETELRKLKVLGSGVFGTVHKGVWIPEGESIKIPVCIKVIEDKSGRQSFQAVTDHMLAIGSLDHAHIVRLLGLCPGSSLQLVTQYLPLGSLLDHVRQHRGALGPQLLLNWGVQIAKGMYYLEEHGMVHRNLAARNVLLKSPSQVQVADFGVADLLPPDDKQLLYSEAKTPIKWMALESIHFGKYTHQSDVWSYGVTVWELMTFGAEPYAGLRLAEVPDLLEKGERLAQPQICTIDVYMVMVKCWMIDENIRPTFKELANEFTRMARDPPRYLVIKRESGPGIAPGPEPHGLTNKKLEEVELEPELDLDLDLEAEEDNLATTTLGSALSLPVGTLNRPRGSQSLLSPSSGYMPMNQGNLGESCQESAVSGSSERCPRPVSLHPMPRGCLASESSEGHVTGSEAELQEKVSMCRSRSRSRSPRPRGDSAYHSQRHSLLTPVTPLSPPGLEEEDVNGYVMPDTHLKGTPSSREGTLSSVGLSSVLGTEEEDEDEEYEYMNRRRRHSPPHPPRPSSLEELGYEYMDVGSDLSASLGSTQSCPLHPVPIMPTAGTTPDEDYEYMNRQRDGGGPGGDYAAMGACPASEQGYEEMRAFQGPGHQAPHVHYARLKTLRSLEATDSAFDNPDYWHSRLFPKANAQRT
UniProt O75460: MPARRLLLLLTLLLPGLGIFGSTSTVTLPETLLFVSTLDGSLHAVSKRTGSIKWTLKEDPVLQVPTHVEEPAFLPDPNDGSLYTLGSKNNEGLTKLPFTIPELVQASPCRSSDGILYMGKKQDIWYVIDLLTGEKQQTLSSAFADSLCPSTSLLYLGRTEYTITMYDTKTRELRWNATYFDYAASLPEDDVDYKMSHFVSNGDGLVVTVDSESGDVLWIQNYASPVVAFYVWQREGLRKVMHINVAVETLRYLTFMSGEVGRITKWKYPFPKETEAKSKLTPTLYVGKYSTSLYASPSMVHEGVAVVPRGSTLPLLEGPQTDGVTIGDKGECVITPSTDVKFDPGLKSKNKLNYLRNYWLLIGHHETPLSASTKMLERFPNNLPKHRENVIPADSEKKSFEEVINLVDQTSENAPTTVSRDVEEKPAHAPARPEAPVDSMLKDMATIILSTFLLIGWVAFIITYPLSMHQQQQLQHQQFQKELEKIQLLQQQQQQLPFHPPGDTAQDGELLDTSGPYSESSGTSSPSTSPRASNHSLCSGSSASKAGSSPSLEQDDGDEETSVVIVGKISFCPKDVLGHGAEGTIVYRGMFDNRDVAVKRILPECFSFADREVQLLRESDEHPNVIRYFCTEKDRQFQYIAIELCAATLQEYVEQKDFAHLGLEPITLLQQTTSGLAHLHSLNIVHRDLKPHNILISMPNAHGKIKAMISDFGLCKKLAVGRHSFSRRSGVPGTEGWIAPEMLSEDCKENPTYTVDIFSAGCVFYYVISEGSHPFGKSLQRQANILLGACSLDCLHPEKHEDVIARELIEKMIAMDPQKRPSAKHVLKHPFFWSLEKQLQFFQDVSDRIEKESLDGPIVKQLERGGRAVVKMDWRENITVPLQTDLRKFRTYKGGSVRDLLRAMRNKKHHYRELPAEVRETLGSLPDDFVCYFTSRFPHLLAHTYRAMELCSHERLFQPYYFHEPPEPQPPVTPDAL
UniProt P11362, whole entry, looked up: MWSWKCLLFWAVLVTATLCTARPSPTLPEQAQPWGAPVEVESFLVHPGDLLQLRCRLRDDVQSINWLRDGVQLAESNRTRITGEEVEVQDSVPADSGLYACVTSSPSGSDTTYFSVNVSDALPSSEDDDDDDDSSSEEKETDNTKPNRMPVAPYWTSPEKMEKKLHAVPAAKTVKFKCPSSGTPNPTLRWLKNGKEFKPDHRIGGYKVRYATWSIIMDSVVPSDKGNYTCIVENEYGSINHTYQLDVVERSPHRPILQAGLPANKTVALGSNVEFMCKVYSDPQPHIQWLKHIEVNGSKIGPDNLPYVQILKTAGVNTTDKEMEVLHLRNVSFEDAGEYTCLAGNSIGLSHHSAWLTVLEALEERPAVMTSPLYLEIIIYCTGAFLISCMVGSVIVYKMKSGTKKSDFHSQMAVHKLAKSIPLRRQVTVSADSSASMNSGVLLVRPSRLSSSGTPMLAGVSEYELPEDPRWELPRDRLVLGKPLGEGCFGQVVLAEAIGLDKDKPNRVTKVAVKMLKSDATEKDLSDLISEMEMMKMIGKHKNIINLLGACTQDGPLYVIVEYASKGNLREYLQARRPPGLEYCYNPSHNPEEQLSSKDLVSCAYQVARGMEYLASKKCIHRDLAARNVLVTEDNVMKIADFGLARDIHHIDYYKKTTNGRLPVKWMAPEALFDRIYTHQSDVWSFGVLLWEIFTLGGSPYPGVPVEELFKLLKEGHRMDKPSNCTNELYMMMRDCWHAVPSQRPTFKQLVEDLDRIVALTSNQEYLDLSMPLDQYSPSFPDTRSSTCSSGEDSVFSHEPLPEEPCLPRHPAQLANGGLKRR
UniProt P21802, whole entry, looked up: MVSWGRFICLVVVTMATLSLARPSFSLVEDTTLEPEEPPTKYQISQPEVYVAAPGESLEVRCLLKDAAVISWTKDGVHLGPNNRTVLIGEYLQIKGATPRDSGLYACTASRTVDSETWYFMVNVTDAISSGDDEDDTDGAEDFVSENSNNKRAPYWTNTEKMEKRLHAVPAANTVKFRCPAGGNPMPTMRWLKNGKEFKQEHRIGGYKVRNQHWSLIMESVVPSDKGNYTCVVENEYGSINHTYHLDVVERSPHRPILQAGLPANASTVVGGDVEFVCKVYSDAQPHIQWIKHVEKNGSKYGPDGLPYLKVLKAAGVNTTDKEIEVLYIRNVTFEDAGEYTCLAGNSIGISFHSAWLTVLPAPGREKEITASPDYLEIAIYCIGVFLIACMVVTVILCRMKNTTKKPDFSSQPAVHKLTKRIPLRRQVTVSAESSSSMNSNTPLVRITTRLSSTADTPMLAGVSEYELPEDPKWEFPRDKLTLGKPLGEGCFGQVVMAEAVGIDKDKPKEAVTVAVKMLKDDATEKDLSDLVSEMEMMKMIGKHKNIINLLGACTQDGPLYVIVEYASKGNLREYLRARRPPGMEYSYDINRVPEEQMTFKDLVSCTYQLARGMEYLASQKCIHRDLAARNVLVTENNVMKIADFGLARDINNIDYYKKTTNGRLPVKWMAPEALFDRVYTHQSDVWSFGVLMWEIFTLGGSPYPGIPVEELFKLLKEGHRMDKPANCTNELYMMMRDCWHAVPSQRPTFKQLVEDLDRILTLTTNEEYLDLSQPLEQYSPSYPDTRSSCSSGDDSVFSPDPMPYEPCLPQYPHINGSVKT
UniProt P22607, whole entry, looked up: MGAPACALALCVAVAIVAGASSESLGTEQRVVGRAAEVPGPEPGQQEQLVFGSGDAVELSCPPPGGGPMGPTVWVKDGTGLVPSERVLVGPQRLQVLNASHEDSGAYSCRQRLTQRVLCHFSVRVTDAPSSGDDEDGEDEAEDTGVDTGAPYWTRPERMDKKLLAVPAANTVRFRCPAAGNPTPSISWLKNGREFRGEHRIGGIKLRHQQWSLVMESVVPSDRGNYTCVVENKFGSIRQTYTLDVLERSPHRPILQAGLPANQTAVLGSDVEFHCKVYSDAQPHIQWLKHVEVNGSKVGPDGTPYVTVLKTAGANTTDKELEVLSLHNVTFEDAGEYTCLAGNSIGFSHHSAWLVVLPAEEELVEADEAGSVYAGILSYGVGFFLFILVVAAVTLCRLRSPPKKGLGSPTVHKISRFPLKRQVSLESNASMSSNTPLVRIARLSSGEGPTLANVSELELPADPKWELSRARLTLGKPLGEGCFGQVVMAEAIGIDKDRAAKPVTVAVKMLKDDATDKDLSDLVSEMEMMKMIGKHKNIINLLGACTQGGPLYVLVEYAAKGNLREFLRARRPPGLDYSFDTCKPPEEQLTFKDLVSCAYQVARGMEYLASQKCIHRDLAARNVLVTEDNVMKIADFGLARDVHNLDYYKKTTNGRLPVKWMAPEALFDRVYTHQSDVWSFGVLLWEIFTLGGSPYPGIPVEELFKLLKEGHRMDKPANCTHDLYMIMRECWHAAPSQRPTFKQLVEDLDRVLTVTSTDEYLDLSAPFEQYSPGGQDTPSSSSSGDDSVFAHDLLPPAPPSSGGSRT
UniProt P49840: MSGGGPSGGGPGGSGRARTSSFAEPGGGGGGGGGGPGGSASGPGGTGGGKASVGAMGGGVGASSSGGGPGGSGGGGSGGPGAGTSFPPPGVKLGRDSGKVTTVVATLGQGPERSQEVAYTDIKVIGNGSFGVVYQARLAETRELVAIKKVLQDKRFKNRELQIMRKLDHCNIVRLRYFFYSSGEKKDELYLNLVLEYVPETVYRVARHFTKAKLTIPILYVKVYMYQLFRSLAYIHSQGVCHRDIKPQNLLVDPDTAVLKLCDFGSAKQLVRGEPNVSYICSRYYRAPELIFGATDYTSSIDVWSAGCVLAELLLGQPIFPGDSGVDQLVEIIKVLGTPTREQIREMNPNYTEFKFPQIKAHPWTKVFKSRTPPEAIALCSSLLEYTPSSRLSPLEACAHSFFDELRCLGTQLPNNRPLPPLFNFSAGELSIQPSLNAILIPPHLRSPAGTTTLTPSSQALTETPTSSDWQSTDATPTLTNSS
UniProt P14616: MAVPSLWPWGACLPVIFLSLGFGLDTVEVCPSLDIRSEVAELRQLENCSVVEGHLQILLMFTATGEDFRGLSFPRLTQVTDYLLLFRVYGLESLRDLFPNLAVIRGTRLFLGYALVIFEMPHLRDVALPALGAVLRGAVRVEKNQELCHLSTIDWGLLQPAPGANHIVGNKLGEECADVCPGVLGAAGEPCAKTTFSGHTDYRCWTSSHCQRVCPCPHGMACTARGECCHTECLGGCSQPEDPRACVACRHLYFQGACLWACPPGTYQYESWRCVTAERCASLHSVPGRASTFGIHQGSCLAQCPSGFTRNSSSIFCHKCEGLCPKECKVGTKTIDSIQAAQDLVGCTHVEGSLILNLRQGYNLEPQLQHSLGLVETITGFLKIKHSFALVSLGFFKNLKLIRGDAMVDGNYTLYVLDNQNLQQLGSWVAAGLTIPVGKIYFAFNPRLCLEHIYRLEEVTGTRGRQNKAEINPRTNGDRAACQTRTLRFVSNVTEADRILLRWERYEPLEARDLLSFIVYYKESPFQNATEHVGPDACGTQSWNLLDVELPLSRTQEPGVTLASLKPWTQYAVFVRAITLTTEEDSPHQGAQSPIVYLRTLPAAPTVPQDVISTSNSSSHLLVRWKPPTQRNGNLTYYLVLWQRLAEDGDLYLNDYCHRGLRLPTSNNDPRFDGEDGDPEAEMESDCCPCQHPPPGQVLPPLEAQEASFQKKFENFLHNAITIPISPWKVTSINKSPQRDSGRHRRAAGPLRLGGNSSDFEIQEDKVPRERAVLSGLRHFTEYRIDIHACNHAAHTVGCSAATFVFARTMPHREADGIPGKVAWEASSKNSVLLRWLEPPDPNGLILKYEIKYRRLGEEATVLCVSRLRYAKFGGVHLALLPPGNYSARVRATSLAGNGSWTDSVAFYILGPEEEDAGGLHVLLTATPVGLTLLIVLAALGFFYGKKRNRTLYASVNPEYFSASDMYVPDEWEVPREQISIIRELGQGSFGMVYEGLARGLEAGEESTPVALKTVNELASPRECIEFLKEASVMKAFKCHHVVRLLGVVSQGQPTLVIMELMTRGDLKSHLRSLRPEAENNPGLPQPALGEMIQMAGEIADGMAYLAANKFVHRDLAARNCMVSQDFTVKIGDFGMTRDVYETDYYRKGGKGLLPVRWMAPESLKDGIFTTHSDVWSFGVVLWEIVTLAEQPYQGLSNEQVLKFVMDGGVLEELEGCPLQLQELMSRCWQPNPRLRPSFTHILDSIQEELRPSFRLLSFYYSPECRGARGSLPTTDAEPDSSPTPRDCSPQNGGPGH

Assays:
Assay in all cases: kinase-Nluc reporter destabilization hit call (1 = scored as downregulated) (binary); higher = compound decreases kinase abundance
Conditions in all cases: K562; 2-18 h
EGFR = EGFR (UniProt P00533)
EGFR_G719S = EGFR_G719S (UniProt P00533)
EGFR_G719S_T790M = EGFR_G719S_T790M (UniProt P00533)
EGFR_L718V = EGFR_L718V (UniProt P00533)
EGFR_L858R = EGFR_L858R (UniProt P00533)
EGFR_L861Q = EGFR_L861Q (UniProt P00533)
EGFR_T790M = EGFR_T790M (UniProt P00533)
EPHA2 = EPHA2 (UniProt P29317)
ERBB3 = ERBB3 (UniProt P21860)
[1] = target: ERBB4_R711C (clone: ERBB4_mut) (UniProt Q15303)
ERN1 = ERN1 (UniProt O75460)
FGFR1 = FGFR1 (UniProt P11362)
FGFR2 = FGFR2 (UniProt P21802)
FGFR3 = FGFR3 (UniProt P22607)
FGR = FGR (UniProt P09769)
FLT3 = FLT3 (UniProt P36888)
FYN = FYN (UniProt P06241)
GSK3A = GSK3A (UniProt P49840)
HER2 = HER2 (UniProt P04626)
INSRR = INSRR (UniProt P14616)

Measured: kinase-Nluc reporter destabilization hit call

CCn1c(=O)c(-c2ccc(-c3cncc(C)n3)cc2Cl)cc2cnc(NCCC3CCN(C)CC3)nc21 (10 µM)
inactive: EGFR 0 | EGFR_G719S 0 | EGFR_G719S_T790M 0 | EGFR_L718V 0 | EGFR_L858R 0 | EGFR_L861Q 0 | EGFR_T790M 0 | EPHA2 = 0 | ERBB3 = 0 | [1] 0 | ERN1 = 0 | FGFR1 = 0 | FGFR2 = 0 | FGFR3 = 0 | FGR 0 | FLT3 = 0 | FYN 0 | GSK3A 0 | HER2 = 0 | INSRR 0

CCN(CC)c1ccc2cc(C(=O)N3CCN(C(=O)C4=Cc5c(Br)cccc5S4(=O)=O)CC3)c(=O)oc2c1 (2 µM)
inactive: EGFR 0 | EGFR_G719S 0 | EGFR_G719S_T790M 0 | EGFR_L718V 0 | EGFR_L858R 0 | EGFR_L861Q 0 | EGFR_T790M 0 | EPHA2 = 0 | ERBB3 = 0 | [1] 0 | ERN1 = 0 | FGFR1 = 0 | FGFR2 = 0 | FGFR3 = 0 | FGR 0 | FLT3 = 0 | FYN 0 | GSK3A 0 | HER2 = 0 | INSRR 0

O=C1Nc2nc(-c3c(O)cccc3OCC3CC3)cc([C@@H]3CCCNC3)c2CO1 [Bay 65-1942 (hydrochloride)] (10 µM)
inactive: EGFR 0 | EGFR_G719S 0 | EGFR_G719S_T790M 0 | EGFR_L718V 0 | EGFR_L858R 0 | EGFR_L861Q 0 | EGFR_T790M 0 | EPHA2 = 0 | ERBB3 = 0 | [1] 0 | ERN1 = 0 | FGFR1 = 0 | FGFR2 = 0 | FGFR3 = 0 | FGR 0 | FLT3 = 0 | FYN 0 | GSK3A 0 | HER2 = 0 | INSRR 0

Cc1noc(C)c1-c1ccc(-c2cc(C(N)=O)c(NC(N)=O)s2)c(O[C@H]2CCNC2)c1 (10 µM)
inactive: EGFR 0 | EGFR_G719S 0 | EGFR_G719S_T790M 0 | EGFR_L718V 0 | EGFR_L858R 0 | EGFR_L861Q 0 | EGFR_T790M 0 | EPHA2 = 0 | ERBB3 = 0 | [1] 0 | ERN1 = 0 | FGFR1 = 0 | FGFR2 = 0 | FGFR3 = 0 | FGR 0 | FLT3 = 0 | FYN 0 | GSK3A 0 | HER2 = 0 | INSRR 0

CCOc1cc(C(=O)N2CCC(N3CCN(C)CC3)CC2)ccc1Nc1ncc2c(n1)N(C1CCCC1)c1ccccc1C(=O)N2C (10 µM)
inactive: EGFR 0 | EGFR_G719S 0 | EGFR_G719S_T790M 0 | EGFR_L718V 0 | EGFR_L858R 0 | EGFR_L861Q 0 | EGFR_T790M 0 | EPHA2 = 0 | ERBB3 = 0 | [1] 0 | ERN1 = 0 | FGFR1 = 0 | FGFR2 = 0 | FGFR3 = 0 | FGR 0 | FLT3 = 0 | FYN 0 | GSK3A 0 | HER2 = 0 | INSRR 0

CCc1cc(O)c(F)cc1-c1ccc2c(-c3nc4c([nH]3)CN(C3CCN(C)CC3)CC4)n[nH]c2c1 [JAK-IN-5 (hydrochloride)] (2 µM)
inactive: EGFR 0 | EGFR_G719S 0 | EGFR_G719S_T790M 0 | EGFR_L718V 0 | EGFR_L858R 0 | EGFR_L861Q 0 | EGFR_T790M 0 | EPHA2 = 0 | ERBB3 = 0 | [1] 0 | ERN1 = 0 | FGFR1 = 0 | FGFR2 = 0 | FGFR3 = 0 | FGR 0 | FLT3 = 0 | FYN 0 | GSK3A 0 | HER2 = 0 | INSRR 0

CS(=O)(=O)c1ccc(-c2noc(C(F)(F)F)c2-c2ccccc2)cc1 (10 µM)
inactive: EGFR 0 | EGFR_G719S 0 | EGFR_G719S_T790M 0 | EGFR_L718V 0 | EGFR_L858R 0 | EGFR_L861Q 0 | EGFR_T790M 0 | EPHA2 = 0 | ERBB3 = 0 | [1] 0 | ERN1 = 0 | FGFR1 = 0 | FGFR2 = 0 | FGFR3 = 0 | FGR 0 | FLT3 = 0 | FYN 0 | GSK3A 0 | HER2 = 0 | INSRR 0

Two compounds drawn at random from those above, as already listed:
O=C1Nc2nc(-c3c(O)cccc3OCC3CC3)cc([C@@H]3CCCNC3)c2CO1 [Bay 65-1942 (hydrochloride)] (10 µM)
inactive: EGFR 0 | EGFR_G719S 0 | EGFR_G719S_T790M 0 | EGFR_L718V 0 | EGFR_L858R 0 | EGFR_L861Q 0 | EGFR_T790M 0 | EPHA2 = 0 | ERBB3 = 0 | [1] 0 | ERN1 = 0 | FGFR1 = 0 | FGFR2 = 0 | FGFR3 = 0 | FGR 0 | FLT3 = 0 | FYN 0 | GSK3A 0 | HER2 = 0 | INSRR 0

CCc1cc(O)c(F)cc1-c1ccc2c(-c3nc4c([nH]3)CN(C3CCN(C)CC3)CC4)n[nH]c2c1 [JAK-IN-5 (hydrochloride)] (2 µM)
inactive: EGFR 0 | EGFR_G719S 0 | EGFR_G719S_T790M 0 | EGFR_L718V 0 | EGFR_L858R 0 | EGFR_L861Q 0 | EGFR_T790M 0 | EPHA2 = 0 | ERBB3 = 0 | [1] 0 | ERN1 = 0 | FGFR1 = 0 | FGFR2 = 0 | FGFR3 = 0 | FGR 0 | FLT3 = 0 | FYN 0 | GSK3A 0 | HER2 = 0 | INSRR 0

(further entries)

C[C@@H](c1ccc2nccn2c1)n1nnc2ncc(-c3cnn(C)c3)nc21 [Savolitinib] (10 µM)
inactive: EGFR 0 | EGFR_G719S 0 | EGFR_G719S_T790M 0 | EGFR_L718V 0 | EGFR_L858R 0 | EGFR_L861Q 0 | EGFR_T790M 0 | EPHA2 = 0 | ERBB3 = 0 | [1] 0 | ERN1 = 0 | FGFR1 = 0 | FGFR2 = 0 | FGFR3 = 0 | FGR 0 | FLT3 = 0 | FYN 0 | GSK3A 0 | HER2 = 0 | INSRR 0

COc1ccc(C2CC(c3ccccc3)=NN2c2ccc(S(N)(=O)=O)cc2)cc1 (stereo not given) (10 µM)
inactive: EGFR 0 | EGFR_G719S 0 | EGFR_G719S_T790M 0 | EGFR_L718V 0 | EGFR_L858R 0 | EGFR_L861Q 0 | EGFR_T790M 0 | EPHA2 = 0 | ERBB3 = 0 | [1] 0 | ERN1 = 0 | FGFR1 = 0 | FGFR2 = 0 | FGFR3 = 0 | FGR 0 | FLT3 = 0 | FYN 0 | GSK3A 0 | HER2 = 0 | INSRR 0

COc1cc(S(C)(=O)=O)ccc1Nc1nc2ccc(-c3ccc(NC(=O)[C@H](C)c4ccc(F)cc4)cc3)cn2n1 [Empesertib] (10 µM)
inactive: EGFR 0 | EGFR_G719S 0 | EGFR_G719S_T790M 0 | EGFR_L718V 0 | EGFR_L858R 0 | EGFR_L861Q 0 | EGFR_T790M 0 | EPHA2 = 0 | ERBB3 = 0 | [1] 0 | ERN1 = 0 | FGFR1 = 0 | FGFR2 = 0 | FGFR3 = 0 | FGR 0 | FLT3 = 0 | FYN 0 | GSK3A 0 | HER2 = 0 | INSRR 0

COc1cc(N2CCN(C)CC2)ccc1Nc1ncc2c(n1)N(C1CCC1)C(=O)N(c1c(C)cccc1C)C2 (2.5 µM)
inactive: EGFR 0 | EGFR_G719S 0 | EGFR_G719S_T790M 0 | EGFR_L718V 0 | EGFR_L858R 0 | EGFR_L861Q 0 | EGFR_T790M 0 | EPHA2 = 0 | ERBB3 = 0 | [1] 0 | ERN1 = 0 | FGFR1 = 0 | FGFR2 = 0 | FGFR3 = 0 | FGR 0 | FLT3 = 0 | FYN 0 | GSK3A 0 | HER2 = 0 | INSRR 0

CNCc1ccccc1-c1csc([C@@H](C)Nc2nc(C)nc3cc(OC)c(OC)cc23)c1 (2.5 µM)
inactive: EGFR 0 | EGFR_G719S 0 | EGFR_G719S_T790M 0 | EGFR_L718V 0 | EGFR_L858R 0 | EGFR_L861Q 0 | EGFR_T790M 0 | EPHA2 = 0 | ERBB3 = 0 | [1] 0 | ERN1 = 0 | FGFR1 = 0 | FGFR2 = 0 | FGFR3 = 0 | FGR 0 | FLT3 = 0 | FYN 0 | GSK3A 0 | HER2 = 0 | INSRR 0

CCn1c(-c2nonc2N)nc2cnc(Oc3cccc(NC(=O)c4ccc(OCCN5CCOCC5)cc4)c3)cc21 (10 µM)
inactive: EGFR 0 | EGFR_G719S 0 | EGFR_G719S_T790M 0 | EGFR_L718V 0 | EGFR_L858R 0 | EGFR_L861Q 0 | EGFR_T790M 0 | EPHA2 = 0 | ERBB3 = 0 | [1] 0 | ERN1 = 0 | FGFR1 = 0 | FGFR2 = 0 | FGFR3 = 0 | FGR 0 | FLT3 = 0 | FYN 0 | GSK3A 0 | HER2 = 0 | INSRR 0

Cc1cc(NC(=O)c2cccc(NC(=O)/C=C/CN(C)C)c2)ccc1Nc1nccc(-c2cccnc2)n1 (10 µM)
inactive: EGFR 0 | EGFR_G719S 0 | EGFR_G719S_T790M 0 | EGFR_L718V 0 | EGFR_L858R 0 | EGFR_L861Q 0 | EGFR_T790M 0 | EPHA2 = 0 | ERBB3 = 0 | [1] 0 | ERN1 = 0 | FGFR1 = 0 | FGFR2 = 0 | FGFR3 = 0 | FGR 0 | FLT3 = 0 | FYN 0 | GSK3A 0 | HER2 = 0 | INSRR 0

N[C@H](Cc1c[nH]c2ccccc12)C(=O)N/N=C/c1ccc2nccnc2c1 [Rhosin (hydrochloride)] (10 µM)
inactive: EGFR 0 | EGFR_G719S 0 | EGFR_G719S_T790M 0 | EGFR_L718V 0 | EGFR_L858R 0 | EGFR_L861Q 0 | EGFR_T790M 0 | EPHA2 = 0 | ERBB3 = 0 | [1] 0 | ERN1 = 0 | FGFR1 = 0 | FGFR2 = 0 | FGFR3 = 0 | FGR 0 | FLT3 = 0 | FYN 0 | GSK3A 0 | HER2 = 0 | INSRR 0

COc1ccc(CC(=O)Nc2nc3c(s2)CCc2ccccc2-3)cc1OC (10 µM)
inactive: EGFR 0 | EGFR_G719S 0 | EGFR_G719S_T790M 0 | EGFR_L718V 0 | EGFR_L858R 0 | EGFR_L861Q 0 | EGFR_T790M 0 | EPHA2 = 0 | ERBB3 = 0 | [1] 0 | ERN1 = 0 | FGFR1 = 0 | FGFR2 = 0 | FGFR3 = 0 | FGR 0 | FLT3 = 0 | FYN 0 | GSK3A 0 | HER2 = 0 | INSRR 0

O=C(Nc1cccnc1)c1cc(C(=O)c2c(F)cccc2Br)c[nH]1 (10 µM)
inactive: EGFR 0 | EGFR_G719S 0 | EGFR_G719S_T790M 0 | EGFR_L718V 0 | EGFR_L858R 0 | EGFR_L861Q 0 | EGFR_T790M 0 | EPHA2 = 0 | ERBB3 = 0 | [1] 0 | ERN1 = 0 | FGFR1 = 0 | FGFR2 = 0 | FGFR3 = 0 | FGR 0 | FLT3 = 0 | FYN 0 | GSK3A 0 | HER2 = 0 | INSRR 0

C[C@@H]1O[C@@H](O[C@H]2[C@H](Oc3cc(O)c4c(=O)cc(-c5ccc(O)cc5)oc4c3)O[C@H](CO)[C@@H](O)[C@@H]2O)[C@H](O)[C@H](O)[C@H]1O [Rhoifolin] (10 µM)
inactive: EGFR 0 | EGFR_G719S 0 | EGFR_G719S_T790M 0 | EGFR_L718V 0 | EGFR_L858R 0 | EGFR_L861Q 0 | EGFR_T790M 0 | EPHA2 = 0 | ERBB3 = 0 | [1] 0 | ERN1 = 0 | FGFR1 = 0 | FGFR2 = 0 | FGFR3 = 0 | FGR 0 | FLT3 = 0 | FYN 0 | GSK3A 0 | HER2 = 0 | INSRR 0
